# From PubChem BioAssay AID493014 (National Center for Advancing Translational Sciences (NCATS), 2011)
# The campaign covered roughly 340,000 compounds. About 170 (0.05%) were called active. The shares of active, inactive and inconclusive entries below differ from those in the screen. Calls follow the shape of the dose curve; as a rule, active = well fitted inhibition curve with a large enough effect in the signal ratio, with a control signal flat (not every such curve was filed as active); inconclusive = small, poorly fitted or top-dose-only effect, or effect the other way, or a change in a side signal; inactive = flat fitted curve, though single readings scatter; the % refers to the signal ratio. Potencies of inconclusive entries are doubtful fits and often do not repeat.
# Assay: qHTS Assay to Find Inhibitors of Chronic Active B-Cell Receptor Signaling;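 as to activity change, negative = inhibition: plate controls were basal doxycycline-induced cells for no effect and cells given 10 µM MG132 for full effect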
# Conditions: ABC-DLBCL IkBa-CBG/CBR reporter, luminescence ratio (green luciferase fused to IkBa over red control in TMD8 lymphoma cells), 4 h; activity change, negative = inhibition: at 46.1 µM (top of the series)
# How it was run: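 TMD8 human ABC-DLBCL cells with doxycycline-inducible IκBα–green luciferase fusion and unfused red luciferase, in 0.5% FBS medium; compounds up to 46 uM, 4 h at 37C. Green/red luminescence ratio, filter-overlap corrected, fitted to concentration-response curves.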
# Potency is read from the fitted curve at half-maximal effect.
SMILES,"activity change, negative = inhibition",Potency
CCCCC(=O)N1C/C=C\C(c2ccc(OC)cc2)N(Cc2ccc(F)cc2)C(=O)[C@H]1Cc1ccccc1 (stereo partly drawn),inconclusive: -0.459%,–
N#Cc1cccnc1N1CCN(C(=O)c2cccc3c2C(=O)c2ccc(-c4ccc(F)cc4OCc4ccccc4)cc2S3(=O)=O)CC1,inconclusive: 2.26%,–
COC(=O)C1=C(C)NC(=O)CC1c1ccc(C(=O)OC)cc1 (stereo not drawn),inactive: -1.27%,–
O=C(CCN1C(=O)C2CCCCC2C1=O)Nc1ccc(Br)cc1F (stereo not drawn),inconclusive: 10.5%,–
COc1ccc(C(=O)CNc2ccc3ccccc3c2)cc1,inconclusive: -7.5%,–
CCn1c(SCC(=O)N/N=C/C=C\c2ccccc2[N+](=O)[O-])nc2ccccc21,inconclusive: -27.2%,–
O=C(COC(=O)c1ccc(O)cc1)Nc1ccc(S(=O)(=O)N2CCCC2)cc1,inconclusive: -6.08%,–
CC(=O)c1c(C)[nH]c(C(=O)Nc2cc(S(=O)(=O)N(C)C)ccc2C)c1C,–,"inconclusive: 11.2 µM [falling, partial curve]"
CCN(CC)CCCNC(=O)c1cc2c(=O)n(C)c3ccccc3c2n1C,–,"inconclusive: 23.1 µM [falling, partial curve, poor fit]"
O=S(=O)(Nc1ccc(S(=O)(=O)N2CCCC2)cc1)c1ccccc1Br,inactive: 0.178%,–
O=c1c2cc(Cl)ccc2nc(-c2ccc(Cl)c(Cl)c2)n1O,–,"inconclusive: 4.47 µM [rising, full curve]"
OCCC1CN(Cc2cnc(N3CCOCC3)s2)CCN1C1CCCC1 (stereo not drawn),–,"inconclusive: 20 µM [falling, partial curve, poor fit]"
O=C(Cn1cnc2ccccc21)c1ccc(Br)cc1,inconclusive: 26.1%,–
CCOC(=O)CCCCC(=O)c1[nH]c(=O)[nH]c1CSc1nc(C)cc(C)n1,inconclusive: -2.51%,–
COc1ccc(C(=O)Nc2ccc(-n3nncc3-c3ccc(OC)c(OC)c3)cc2)cc1,–,"inconclusive: 8.91 µM [falling, partial curve, poor fit]"
COc1ccc(NC(=O)CNC(=O)c2ccco2)cc1,inconclusive: 3.4%,–
COc1ccccc1NC(=O)c1ccc([N+](=O)[O-])cc1[N+](=O)[O-],–,"inconclusive: 22.4 µM [falling, partial curve]"
CCN(C(=O)COC(=O)c1cc2ccccc2cc1O)C1CCS(=O)(=O)C1 (stereo not drawn),–,"inconclusive: 20 µM [falling, partial curve]"
CC(C)N(C(=O)CSc1nc2ccccc2c(=O)[nH]1)C(C)C,inconclusive: 22.4%,–
O=C(Cc1ccccc1)N1CCCC(c2nc(-c3ccc(S(=O)(=O)N4CCCC4)cc3)no2)C1 (stereo not drawn),inconclusive: 4.13%,–
Cc1ccc(S(=O)(=O)N2CCC(C(=O)Nc3ccccc3N3CCCC3)CC2)cc1C,inactive: -6.95%,–
Cc1cccc(NC(=O)Nc2ccc(C#N)cc2)n1,–,"inconclusive: 2.06 µM [rising, full curve, poor fit]"
CC(=O)CSc1ncnc2c1cnn2-c1ccccc1,–,"inconclusive: 17.8 µM [falling, single point]"
COc1cc(O)c(C(CCN2CCCCC2)c2ccc(N(C)C)cc2)c(OC)c1 (stereo not drawn),inconclusive: -17.7%,–

SMILES,"activity change, negative = inhibition",Potency
Cc1ccsc1C(=O)OCC(=O)NCCC1=CCCCC1,inconclusive: 9.32%,–
CCc1cccc2cc3c(N)c(C(=O)Nc4ccc(S(=O)(=O)N5CCCC5)cc4)sc3nc12,inconclusive: 11%,–
CCc1c(C)c(C#N)c2nc3ccccc3n2c1NC,inconclusive: 12.4%,–
O=C(Nc1ccccn1)c1ccc(NC(=O)c2ccco2)cc1,–,"inconclusive: 35.5 µM [falling, single point]"
O=C(/C=C/c1ccc(Br)cc1)NC1CCCCCC1,–,"inconclusive: 12.6 µM [falling, partial curve]"
Cc1cc(C)c2nc(N3CCN(C)CC3)c(C#N)cc2c1,inactive: 1.9%,–
Cc1nn(C(C)C(=O)NCCc2ccco2)c(=O)c2nn(-c3ccccc3)c(C)c12 (stereo not drawn),inconclusive: 4.55%,–
COC(=O)[C@@]1(Cc2ccc(OC)cc2)[C@@H]2C(=CC(=O)[C@H]2CC(=O)C(=O)N(C)C)CN1C(=O)c1ccccc1,–,"inconclusive: 16.4 µM [cytotoxic, single point]"
C[C@@H](NC(=O)c1[nH]cnc1C(=O)Nc1ccccc1)c1ccccc1,inconclusive: 7.97%,–
CN(C)S(=O)(=O)c1cc(NC(=O)CSc2nn(-c3ccc(Cl)cc3)c(=S)s2)ccc1Cl,inactive: 2.01%,–
O=c1[nH]c(CN2CCc3ccccc3C2)nc2ccccc12,–,"inconclusive: 29.1 µM [falling, single point]"
CCN(CCNC(=O)c1ccc(C#N)cc1)c1cccc(C)c1,–,"inconclusive: 10 µM [falling, partial curve, poor fit]"
CCC(=O)NC1CC(=O)N(c2ccc3c(c2)OCCO3)C1 (stereo not drawn),inconclusive: -20.4%,–
C=CCn1c(COc2ccccc2)nnc1SC(C)C(=O)N/N=C/c1cc(Cl)ccc1O (stereo not drawn),inactive: 0.195%,–
Cc1ccc(N2C(=O)CSC2c2cccnc2)c(Cl)c1 (stereo not drawn),inconclusive: -12.9%,–
Cc1ccc(NC(=O)c2sccc2C)nc1,–,"inconclusive: 11.2 µM [falling, partial curve]"
COc1cc(/C=C(/C#N)C(=O)Nc2ccccc2)c(Br)cc1OCc1ccc(C(=O)O)cc1,–,"inconclusive: 12.6 µM [falling, partial curve, poor fit]"
Cc1c(-c2ccc(F)cc2)nc(N)c(C#N)c1-c1cccs1,inconclusive: 23.3%,–
Cc1c(C#N)c2ccccc2n1CC(=O)NC(C)c1ccccc1 (stereo not drawn),inconclusive: -1.26%,–
Cc1ccccc1C(=O)Nc1ccc(N2CCN(C)CC2)nc1,inactive: 0.846%,–
COc1cc(C2C3=C(Nc4ncnn42)c2ccccc2CC3)cc(OC)c1OC (stereo not drawn),–,"inconclusive: 1.26 µM [falling, full curve, poor fit]"
CN1CCN(NC(=O)CN2C(=O)/C(=C/c3ccccc3Cl)SC2=S)CC1,inconclusive: -1.26%,–
N=c1nc(N)nc2n1NC(c1ccc(F)cc1)=CS2,inactive: -1.3%,–
O=C(O)CCCC(=O)NCCc1ccncc1,inconclusive: 13.1%,–

# Three structures out of the list, sorted by heavy-atom count, low to high:
SMILES,"activity change, negative = inhibition",Potency
Cc1ccccc1C(=O)Nc1ccc(N2CCN(C)CC2)nc1,inactive: 0.846%,–
Cc1c(C#N)c2ccccc2n1CC(=O)NC(C)c1ccccc1 (stereo not drawn),inconclusive: -1.26%,–
Cc1nn(C(C)C(=O)NCCc2ccco2)c(=O)c2nn(-c3ccccc3)c(C)c12 (stereo not drawn),inconclusive: 4.55%,–
